In patent US6809083B1, “Use of N-substituted-1, 5-dideoxy-1, 5-imino-D-glucitol compounds for treating hepatitis virus infections” (priority 1998, dated 2004):
For at least one compound, name, drawing or mass did not settle the structure.

How the values were obtained:
[1] = system: woodchuck hepatitis virus (WHV); test: Woodchuck model, N-nonyl-DNJ monotherapy, BID oral dosing for 4 weeks; total HBV DNA and IPDNA by quantitative PCR; assay type: in vivo; settings: weeks 0-4
From the text: In order to evaluate the efficacy of N-nonyl-DNJ in combination with 3TC (or other nucleoside or nucleotide analogs) against Hepatitis B virus in a woodchuck animal model, an monotherapy experiment using N-nonyl-DNJ alone was first conducted. This was necessary to determine if N-nonyl-DNJ has any anti-HBV effect in the woodchuck and, if N-nonyl-DNJ has a beneficial effect, to design a combination study based on the dose-response relationship of this drug alone.
Therefore, five groups of four animals each (all groups had both sexes, all but the control had two of each sex) were assigned to 0, 12.5, 25, 50, and 100 mg/kg/day with BID oral dosing. These were lab-reared wild animals. All animals were infected with woodchuck hepatitis virus (WHV) as neonates, and had been tested positive on serological tests for WHV surface antigen. Blood samples were drawn one week prior to dosing (−1 week), immediately before dosing (0 weeks), weekly during dosing (1, 2, 3, and 4 weeks), and after the end of dosing (5, 6, 8, and 10 weeks).
There are two measures of drug efficacy: reduction in total HBV DNA (measured by quantitative PCR), and reduction in HBV DNA from capsids with intact surface glycoproteins, which is the active form of the virus (measured by an ELISA-like immune precipitation assay followed by quantitative PCR). […]

HBV = test: Cell culture experiments with N-nonyl-DNJ: total HBV DNA and immune precipitated DNA (IPDNA); assay type: cell-based, hepatitis B virus

## CCCCCCCCCN1C[C@H](O)[C@@H](O)[C@H](O)[C@H]1CO [Compound 1, N-(n-nonyl)-1,5-dideoxy-1,5-imino-D-glucitol]
[1]; high dose animals, change in slope with dose p<0.005
  IPDNA levels over the dosing period: decreasing levels of IPDNA
[1]; low dose animals
  IPDNA levels over the dosing period: increasing levels of IPDNA
HBV
  effect on the immune precipitated DNA (IPDNA): marked effect
  effect on total HBV DNA: little or no effect
